Laboratory results reported in paper PMC9224307.

The chains behind the UniProt entries cited, without tags or fusion partners. Where a name states a change or a piece, a line headed by the entry shows the natural chain unless it says otherwise.
UniProt Q99757: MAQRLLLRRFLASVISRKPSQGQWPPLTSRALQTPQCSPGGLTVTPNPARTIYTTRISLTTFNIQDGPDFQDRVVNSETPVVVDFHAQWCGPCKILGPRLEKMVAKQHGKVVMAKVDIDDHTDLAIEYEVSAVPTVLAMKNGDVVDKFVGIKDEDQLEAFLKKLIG
UniProt Q15286: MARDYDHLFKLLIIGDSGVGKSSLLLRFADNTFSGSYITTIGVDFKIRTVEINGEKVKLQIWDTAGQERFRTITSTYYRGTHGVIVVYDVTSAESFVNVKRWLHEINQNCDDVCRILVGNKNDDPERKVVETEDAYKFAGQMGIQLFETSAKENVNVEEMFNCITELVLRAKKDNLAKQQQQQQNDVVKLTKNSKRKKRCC

What was measured:
[1] = target: FLAG-tagged full-length (FL) TRX2 (mitochondrial thioredoxin 2) (human) (UniProt Q99757); experiment: co-IP; HCT116 co-transfected with FLAG-tagged TRX2 (full length or truncated) and HA-tagged Rab35 (full length or truncated), 72 h; IP with anti-FLAG beads, pellet analysed by WB
[2] = target: FLAG-tagged full-length (FL) TRX2 (mitochondrial thioredoxin 2) (human) (UniProt Q99757); experiment: co-IP; HCT116 or HEK293T transfected with FLAG-TRX2 or pcDNA3.1+, 72 h; lysate precleared with control IgG, anti-FLAG IP; blot for endogenous Rab35, Rab7A or Rab11B

Row | binding [1] | binding [2] | Substance
1 | binds |  | HA-tagged Rab35 N-terminal motif (amino acids 1-92, containing the switch I and II domains) (from UniProt Q15286 1-92) (domain or fragment)
2 | binds |  | HA-tagged full-length Rab35 (from UniProt Q15286 1-201)
3 |  | binds | Rab35 (endogenous) (from UniProt Q15286 1-201)

These are yes or no findings as the source states them, for the method shown. In cells and extracts the contact can be indirect. A result given as binding can be weak or reduced; the word gives no strength.
